# Screen size: about 330,000 compounds; about 230 (0.07%) were called active. The inconclusive results got no clear call from the source; some entries with a clear call stand among them for comparison.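 How the source made its calls: active means more than half of a compound's replicate wells show inhibition beyond 50%, single wells judged on their own value; inconclusive means some, but no more than half, of replicates pass 50% inhibition; inactive means no replicate passes 50% inhibition.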
# The chains behind the UniProt entries cited, without tags or fusion partners. Residues count along the entry.
# UniProt Q9H3R0, 1-420 limits assumed: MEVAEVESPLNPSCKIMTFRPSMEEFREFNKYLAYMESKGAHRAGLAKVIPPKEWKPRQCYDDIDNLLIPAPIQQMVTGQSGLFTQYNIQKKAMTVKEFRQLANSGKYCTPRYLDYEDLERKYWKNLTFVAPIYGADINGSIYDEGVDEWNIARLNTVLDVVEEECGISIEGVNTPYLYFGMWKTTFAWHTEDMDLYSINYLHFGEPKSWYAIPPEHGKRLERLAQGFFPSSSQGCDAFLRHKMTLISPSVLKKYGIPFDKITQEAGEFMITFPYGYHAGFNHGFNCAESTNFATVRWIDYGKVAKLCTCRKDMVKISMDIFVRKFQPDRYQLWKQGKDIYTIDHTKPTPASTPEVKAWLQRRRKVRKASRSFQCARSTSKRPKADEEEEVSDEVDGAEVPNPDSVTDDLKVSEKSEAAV
# Biological target: Lysine-specific demethylase 4C (Homo sapiens) (UniProt Q9H3R0)
# Test: inhibitors of GASC-1 histone demethylase, primary screen, biochemical, fluorescence, DELFIA europium (AID 2099);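 further: signal counts dimethyl H3K9 product captured on neutravidin plate; 0% = median of DMSO wells and 100% = 0.3 times that DMSO median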
# Conditions: GST-JMJD2C(1-420) H3K9me3 demethylation, at 2.35 µM, hits give high values
row,SMILES,inhibition
1,Cc1cccnc1NC(=O)CN1C(=O)NC(C)(c2ccc3ccccc3c2)C1=O (configuration not stated),inconclusive: -140%
2,COc1ccc(C(F)(F)F)cc1N/C=C\c1nnnn1-c1ccccc1,inconclusive: -66.8%
3,COc1ccccc1C1=NOC(C)(c2nnc(Cc3ccccc3)o2)C1 (configuration not stated),inactive: -0.612%
4,COc1ccc([C@@H]2[C@@H]3C(=O)N(C(C)(C)C)C(=O)[C@@H]3[C@]3(Cc4ccc(Cl)cc4)C(=O)N(c4ccc(OC)cc4)C(=O)N23)cc1,inactive: -7.7%
5,CC12OC1C1(O)CCCC1=CC2=O (configuration not stated),inconclusive: -59.2%
6,O=C(NCCN1CCN(c2ccccc2)CC1)c1cccn2c(=O)c3cc(Cl)ccc3nc12,inconclusive: -60.3%
7,CCC(OC(=O)c1nsc(Cl)c1Cl)C(=O)NCc1cccs1 (configuration not stated),inconclusive: -88.9%
8,Cn1c(N)c(C(=O)COC(=O)[C@H](Cc2ccccc2)N2C(=O)c3ccccc3C2=O)c(=O)n(C)c1=O,inactive: -8.57%
9,CN1CCN(S(=O)(=O)c2cccc(C(=O)Nc3sccc3C(N)=O)c2)CC1,inactive: -17.2%
10,Cc1ccc(C)c(Sc2ccc(NC(=O)CCl)cc2)c1,inactive: 5.04%
11,CC(C)c1ccc(S(=O)(=O)NC2CCCC2)cc1,inconclusive: -57%
12,COc1ccccc1C(=O)Nc1ccc(N2CCCCC2)cc1,inactive: -10.9%
13,c1ccc(NC(=NCc2ccco2)c2ccccc2)cc1,inconclusive: -95%
14,O=C(O)c1ccc(OCC(O)Cn2c3ccccc3c3ccccc32)cc1 (configuration not stated),inconclusive: -54.5%
15,COc1ccc(OC)c(N=c2oc3cc(O)ccc3cc2C(N)=O)c1,inconclusive: -54%
16,Cc1ccsc1C(=O)N(C)C1CCS(=O)(=O)C1 (configuration not stated),inactive: 3.18%
17,CC(C)(C)c1ccc(C(=O)NCCN2CCOCC2)cc1,inactive: 3.38%
18,CC(C)Cn1c(SCC(=O)Nc2cccc(S(N)(=O)=O)c2)nc2ccccc2c1=O,inconclusive: -65%
19,CC(C)(C)NC(=O)C(c1ccsc1)N(CCc1ccccc1)C(=O)Cn1nnc2ccccc21 (configuration not stated),inconclusive: -64.9%
20,CC(OC(=O)CNC(=O)C12CC3CC(CC(C3)C1)C2)C(=O)Nc1ncc(Cl)cc1Cl (configuration not stated),inconclusive: 13.6%
21,COc1ccc(NC(=O)Cn2nc(C(F)(F)F)c3c2CCCC3)cc1OC,inconclusive: -118%
22,CCOC(=O)c1ccc(NC(=O)Nc2ccc(OC)c(OC)c2)cc1,inactive: 38.5%

row,SMILES,inhibition
1,COC(=O)[C@]1(CC(C)C)N[C@H](c2ccc(-c3ccc(OC)cc3)cc2)[C@@H]2C(=O)N(C)C(=O)[C@@H]21,inconclusive: -152%
2,CCCCn1c(=O)[nH]c(=O)c2c1nc(-c1cc(Cl)c(OC)c(OC)c1)n2C,active: 52.1%
3,CC1(C)Cc2cccc(Oc3cc(NN4CCCCC4)c([N+](=O)[O-])cc3[N+](=O)[O-])c2O1,inconclusive: -263%
4,CN1CCc2cccc3c2C1Cc1ccc(O)c(O)c1-3 (configuration not stated),inactive: 4.07%
5,Cc1cc(=O)oc2cc3c(cc12)OCCO3,inconclusive: -76.8%
6,Cc1cccc(N2CCN(C(=O)CSc3nc4ccccc4nc3N3CC(C)OC(C)C3)CC2)c1C (configuration not stated),inactive: 6.36%
7,CC(=O)N(C)C1=C(N2CCOCC2)C(=O)c2ccccc2C1=O,active: 98.7%
8,CC(C)(C)N1OC2CC1c1nc3ccccc3n1C2 (configuration not stated),inconclusive: -53.9%
9,CCOC(=O)N1CCC(NC(=O)c2cc(S(=O)(=O)N3CCc4ccccc43)cn2C)CC1,inconclusive: -71.9%
10,CC(C)(C)NC(=O)C12CCC(C)(c3nc4ccccc4nc31)C2(C)C (configuration not stated),inactive: -2.99%
11,Cc1ccc([N+](=O)[O-])cc1N/C=C1\CCc2ccccc2C1=O,inactive: -2.94%
12,COC(=O)c1ccc(NC2(C#N)C(=O)Nc3ccccc32)cc1 (configuration not stated),inconclusive: -111%
13,O=C(NCc1cccc(F)c1)C1CCN(S(=O)(=O)Cc2ccccc2)CC1,active: 72.6%
14,Cn1nc(-c2ccc(Cl)cc2)nc2c(=O)n(C)c(=O)nc1-2,inconclusive: -74.3%
15,O=C(CCCCCNC(=O)N1CCn2c1nc1ccccc12)NCc1ccccc1Cl,inconclusive: -91.2%
16,c1ccc(-n2nnnc2Oc2ccc(-c3nnco3)cc2)cc1,inconclusive: -101%
17,CC(=O)N/C(=C\c1ccccc1)C(=O)OCC(=O)c1c(N)n(CC(C)C)c(=O)n(C)c1=O,inconclusive: -55.6%
18,Cc1ccc(Cl)c(OCC(=O)OCC(=O)c2ccc[nH]2)c1,inactive: -1.15%
19,CCN1C(=O)[C@H]2[C@@H](c3ccc(-c4ccccc4)c(OC)c3)N[C@@](Cc3ccccc3)(C(=O)OC)[C@H]2C1=O,inconclusive: -110%
20,CC(OC(=O)CCCN=C1NS(=O)(=O)c2ccccc21)C(=O)Nc1ccc(F)c(F)c1F (configuration not stated),inconclusive: -72.9%
21,COc1cccc(C(=O)c2cc3cc(Cl)ccc3[nH]2)c1,inconclusive: -73.2%
22,O=S(=O)(c1ccccc1)N1CCN(S(=O)(=O)N2CCCCCC2)CC1,inactive: 5.17%

# Fetched by structure from the entries so far, 5 records:
row,SMILES,inhibition
20,CC(OC(=O)CCCN=C1NS(=O)(=O)c2ccccc21)C(=O)Nc1ccc(F)c(F)c1F (configuration not stated),inconclusive: -72.9%
11,Cc1ccc([N+](=O)[O-])cc1N/C=C1\CCc2ccccc2C1=O,inactive: -2.94%
6,Cc1cccc(N2CCN(C(=O)CSc3nc4ccccc4nc3N3CC(C)OC(C)C3)CC2)c1C (configuration not stated),inactive: 6.36%
16,c1ccc(-n2nnnc2Oc2ccc(-c3nnco3)cc2)cc1,inconclusive: -101%
4,CN1CCc2cccc3c2C1Cc1ccc(O)c(O)c1-3 (configuration not stated),inactive: 4.07%

# Continued:

row,SMILES,inhibition
1,COc1ccc2c(c1)CCc1c(C(=O)Nc3c(C)n(C)n(-c4ccccc4)c3=O)noc1-2,inconclusive: -135%
2,Cn1cccc1-c1nc2ccc(NC(=O)c3cccs3)cc2[nH]1,active: 58.2%
3,Cc1ccc(S(=O)(=O)Nc2cccc3ncccc23)s1,inactive: 6.22%
4,COc1cc(/C=N/N2CCOCC2)ccc1OC(=O)c1ccco1,inconclusive: -67.7%
5,Nc1c(C(=O)OCC2CCCO2)c2nc3ccccc3nc2n1C1CCCCC1 (configuration not stated),inconclusive: -64.5%
6,COc1ccccc1NC(=O)Cn1c(=O)c(N(C)C)c(N)n(C)c1=O,inconclusive: -89.3%
7,O=C(CNC(=S)N(Cc1ccccc1)Cc1cccs1)NCc1ccc(F)cc1,inconclusive: -54.9%
8,CC1(C)CC(O)(CNCc2ccc3c(c2)OCO3)CCO1 (configuration not stated),inconclusive: -32.4%
9,COc1ccc(C(=O)NC(=S)NNC(=O)c2ccc(NC(C)=O)cc2)cc1Br,inconclusive: -52%
10,COc1ccc(-c2nc(-c3ccc(O)cc3O)cs2)cc1OC,inactive: -1.32%
11,Cc1cc(C)nc(SCC(=O)Nc2ccccc2[N+](=O)[O-])n1,inactive: -22.8%
12,Cc1csc(NC(=O)NCC2CCCC(CNC(=O)Nc3nc(C)cs3)C2)n1 (configuration not stated),inconclusive: -67.6%
13,O=S(=O)(NCc1ccccc1)c1ccc(S(=O)(=O)N(Cc2ccccn2)C2CCCC2)cc1,inconclusive: -102%
14,O=C(O)c1cc2c(ccc3ccccc32)o1,inactive: 9.39%
15,COc1ccccc1-c1cc(C(F)(F)F)nc(S(=O)(=O)CCCC(=O)N2CCOCC2)n1,inactive: 13.3%
16,O=C(CSc1ccc(-c2nc3ccccc3[nH]2)cn1)Nc1ccc(S(=O)(=O)NC2CC2)cc1,inactive: -3.42%
17,CC(Sc1nn(-c2ccc(Cl)cc2)c(=S)s1)C(=O)NCC1CCCO1 (configuration not stated),inconclusive: -223%
18,CCc1noc(C)c1C(=O)NCCc1ccc(S(N)(=O)=O)cc1,inactive: 8.69%
19,Cc1ccc(C2(C)NC(=O)N(CC(=O)Nc3nc(-c4ccccn4)cs3)C2=O)cc1 (configuration not stated),inconclusive: -199%
20,COc1ccc(CC(=O)NCCS(=O)(=O)N2CCN(c3ccccc3)CC2)cc1,inconclusive: -70.9%
21,COc1cc(/C(C#N)=C/c2ccccc2)c([N+](=O)[O-])cc1OC,inconclusive: -145%
22,COc1ccc(/C=C/C(=O)N(C)C2(C)CCS(=O)(=O)C2)cc1 (configuration not stated),inconclusive: -47.3%

row,SMILES,inhibition
1,Cc1ccc(NS(=O)(=O)c2ccc(C(=O)N3CCCC(C(F)(F)F)C3)cc2)cc1 (configuration not stated),inconclusive: -118%
2,CN(C(=O)c1ccccn1)c1nnc(-c2ccccn2)s1,active: 58.4%
3,Cc1c(Cl)c(C(=O)NNC(=S)Nc2ccccc2)nn1C,inconclusive: -100%
4,O=C(NCC(=O)N(Cc1ccccc1)C(C(=O)NC1CCCC1)c1cccnc1)c1ccco1 (configuration not stated),inconclusive: -192%
5,COc1ccc(-n2c(SCC(C)=O)nc3sc(C)c(C)c3c2=O)cc1,inconclusive: -60.9%
6,Fc1ccc(CNc2nc(-c3ccco3)cc(C(F)(F)F)n2)cc1,inconclusive: -74.6%
7,O=C(NCCN1CCOCC1)c1ccc(-c2ccccc2)cc1,inconclusive: -63.1%
8,COc1cccc(N(CC(=O)NCCSc2ccccc2)S(C)(=O)=O)c1,inconclusive: -72.2%
9,Cc1nn(Cc2ccc(C(=O)NC3CCCCC3)o2)c(C)c1Br,inconclusive: -29.8%
10,O=C(O)c1cccc(N/N=C/c2ccc(-c3ccccc3)cc2)c1,inactive: -9.76%
11,Nc1ccc(O)c2c1C(=O)c1ccccc1C2=O,inconclusive: -187%
12,COc1cccc2c1OC1(C)CC2NC(=O)N1c1cccc(C(=O)Nc2ccc3c(c2)OCCO3)c1 (configuration not stated),inconclusive: -116%
13,Cc1cccc(NS(=O)(=O)c2cccc3nsnc23)c1,active: 55.9%
14,O=C(Nc1ccc(Cl)cc1)Nc1nnc(CSCc2ccc(Cl)cc2)s1,inactive: 0.602%
15,CCN(Cc1ccccc1)S(=O)(=O)CCNC(=O)c1ccc(OC)cc1,inconclusive: -128%
16,CNC(=S)Nc1ccc([N+](=O)[O-])cc1C,inconclusive: -54.1%
17,N#C/C(N=Nc1ccccc1O)=N\Nc1ccccc1O,active: 86.7%
18,CCn1c(/C=C/c2cc(Br)ccc2O)nc2ccccc2c1=O,inconclusive: -62.9%
19,Cc1cc(N2CCN(c3ccccn3)CC2)n2c(nc3ccccc32)c1C#N,inconclusive: -94.7%
20,Cn1c(NCC2CCCO2)nc2c1c(=O)n(Cc1ccccc1)c(=O)n2C (configuration not stated),inconclusive: -77.8%
21,C[C@H](CO)N1C[C@H](C)[C@@H](CN(C)S(=O)(=O)c2ccccc2)Oc2c(NC(=O)CCC(F)(F)F)cccc2C1=O,active: 52.8%

# Source: PubChem BioAssay AID2099 (Broad Institute, 2009)
